Patent EP0937460A2, “Use of an antidiarrheal for the manufacture of a medicament for the treatment of inflammatory conditions” (Adolor Corporation, priority 1994, dated 1995)
Where a name gives a salt, the structure may show the parent alone.

Assays:
TNF production [1] = experiment: Inhibition of LPS-stimulated TNF production in the human monocytic cell line THP-1 (ELISA); assay type: cell-based; conditions: THP-1 cells
Protocol: Cultures were maintained by the addition of fresh growth medium to a T-75 or T-150 flask of cells in suspension, or by pelleting the cells and re-suspending them in the appropriate volume of fresh medium. Maximum cell density was 1.0 x 10^6 cells per mL and cultures were seeded at a minimum density of 0.2 x 10^6 cells per ml.
THP-1 cells were plated into 24-well plates at a density of 1.0 x 10^6 cells per mL in 0.5 mL medium per well. […] For measurement of IL-1α and IL-1β production, THP-1 cells were incubated with 500 ng/mL or 50 ng/mL LPS and incubated for 16 hours. Levels of secreted cytokine were measured in cell supernatants as for TNF. Cell-associated species were measured in cell lysates which were prepared by repetitive freeze-thawing of cells. For in vitro screening, drugs at 10 µM concentration were co-administered with LPS. […] Drug effects on cell viability were assessed by the MTT assay. […] Water-soluble drugs were dissolved in aqueous solutions such as RPMI or deionized H20. The final concentration of DMSO in the incubation medium was at or below 0.01% and that of ethanol was at or below 0. 1%. The effect on cell viability was evaluated by the MTT assay.

TNF production [2] = experiment: Inhibition of LPS-stimulated TNF production in the mouse macrophage line RAW 264.7 (ELISA); assay type: cell-based; conditions: RAW264.7, read-out: IC50 value for the inhibition of LPS-stimulated TNF production
Protocol: Cells were passaged at confluence by scraping and routinely plated at a density of 0.25 x 10^6 and 0.5 x 10^6 cells per T-75 and T-150, respectively.
Typically, RAW cells were plated at 0.25 x 10^6 cells per well of a 24-well plate, in 0.5 mL media per well on the day prior to experimentation. […] 1%. Drugs were co-administered with the stimulant, LPS. After a 6-hr incubation period with LPS ± drug (n = 3-4), the media from the experimental wells was harvested, the cells were removed by microcentrifugation, and the media assayed for TNF by ELISA. Drugs were screened at 10 µM for their ability to alter TNF production by cells stimulated with 1 µg/mL or 10 ng/mL LPS. Dexamethasone, an anti-inflammatory corticosteroid, served as the reference for inhibition of the LPS response.

## CN(C)C(=O)C(CCN1CCC(O)(c2ccc(Cl)cc2)CC1)(c1ccccc1)c1ccccc1 [Loperamide, 4-(p-chlorophenyl)-4-hydroxy-N,N-dimethyl-α, α-diphenyl-1-piperidine butyramide HCL]
TNF production [1]
  IC50 value (50% of the maximal inhibition, as defined by effects at 10 µM): within the same range
TNF production [2]
  IC50: < 1000 nM
